Reference: patent US20250283871A1, “COMPOSITIONS AND METHODS FOR MODULATING THE INTERACTION BETWEEN SS18-SSX FUSION ONCOPROTEIN AND NUCLEOSOMES” (Dana-Farber Cancer Institute, Inc., priority 2020, published 2025)

Test system: BAF complex subunits and histone proteins
Test: Mass spectrometry proteomics of purified HA-SS18 WT and HA-SS18-SSX1 complexes (Tables 5A-5E)
Set-up: species or system human
Conditions: for Total / Unique: HA-SS18SSX1_CHR_peptides; for Total: total peptides of the identified protein; for Unique: unique peptides of the identified protein; for Total (total peptides) / Unique (unique peptides) / Total (peptides) / Unique (peptides): HEK-293T
[1] = HA-SS18WT_CHR_peptides: protein identified in HA-SS18 WT BAF complex purification from nuclease-treated solubilized chromatin (CHR)
[2] = HA-SS18WT_NE_peptides: proteins co-purified with HA-SS18 WT from nuclear extract (NE)
[3] = HA-SS18SSX1_CHR_peptides: protein identified in the HA-SS18-SSX1 purification from solubilized chromatin (CHR)
[4] = HA-SS18WT_CHR_peptides: HA-SS18 WT purification from nuclease-treated solubilized chromatin (CHR), label = protein identified
[5] = HA-SS18WT_NE_peptides: HA-SS18 WT complexes purified from nuclear extract (NE), label = protein identified (Gene Symbol)
[6] = HA-SS18SSX1 purification, NE (soluble nuclear extract) fraction, peptides per identified protein

Molecule | Total | Unique | Total (total peptides) [1] | Unique (unique peptides) [1] | Total (peptides) [2] | Unique (peptides) [2] | Total (total peptides) [3] | Unique (unique peptides) [3] | Total (peptides) [4] | Unique (peptides) [4] | Total (peptides) [5] | Unique (peptides) [5] | Total (total peptides) [6] | Unique (unique peptides) [6]
RSRC1 (protein, UniProt Q96IZ7 1-334, looked up) Serine/Arginine-related …: MGRRSSDTEEESRSKRKKKHRRRSSSSSSSDSRTYSRKKGGRKSRSKSRSWSRDLQPRSHSYDRRRRHRSSSSSSYGSRRKRSRSRSRGRGKSYRVQRSRSKSRTRRSRSRPRLRSHSRSSERSSHRRTRSRSRDRERRKGRDKEKREKEKDKGKDKELHNIKRGESGNIKAGLEHLPPAEQAKARLQLVLEAAAKADEALKAKERNEEEAKRRKEEDQATLVEQVKRVKEIEAIESDSFVQQTFRSSKEVKKSVEPSEVKQATSTSGPASAVADPPSTEKEIDPTSIPTAIKYQDDNSLAHPNLFIEKADAEEKWFKRLIALRQERLMGSPVA | 2 | 2 |  |  |  |  |  |  |  |  |  |  |  | 
CTCF (protein, UniProt P49711 1-727, looked up) Transcriptional repressor CTCF: MEGDAVEAIVEESETFIKGKERKTYQRRREGGQEEDACHLPQNQTDGGEVVQDVNSSVQMVMMEQLDPTLLQMKTEVMEGTVAPEAEAAVDDTQIITLQVVNMEEQPINIGELQLVQVPVPVTVPVATTSVEELQGAYENEVSKEGLAESEPMICHTLPLPEGFQVVKVGANGEVETLEQGELPPQEDPSWQKDPDYQPPAKKTKKTKKSKLRYTEEGKDVDVSVYDFEEEQQEGLLSEVNAEKVVGNMKPPKPTKIKKKGVKKTFQCELCSYTCPRRSNLDRHMKSHTDERPHKCHLCGRAFRTVTLLRNHLNTHTGTRPHKCPDCDMAFVTSGELVRHRRYKHTHEKPFKCSMCDYASVEVSKLKRHIRSHTGERPFQCSLCSYASRDTYKLKRHMRTHSGEKPYECYICHARFTQSGTMKMHILQKHTENVAKFHCPHCDTVIARKSDLGVHLRKQHSYIEQGKKCRYCDAVFHERYALIQHQKSHKNEKRFKCDQCDYACRQERHMIMHKRTHTGEKPYACSHCDKTFRQKQLLDMHFKRYHDPNFVPAAFVCSKCGKTFTRRNTMARHADNCAGPDGVEGENGGETKKSKRGRKRKMRSKKEDSSDSENAEPDLDDNEDEEEPAVEIEPEPEPQPVTPAPPPAKKRRGRPPGRTNQPKQNQPTAIIQVEDQNTGAIENIIVEVKKEPDAEPAEGEEEEAQPAATDAPNGDLTPEMILSMMDR | 2 | 2 | 2 | 2 | 1 | 1 |  |  |  |  |  |  |  | 
ARL6IP4 (protein, UniProt Q66PJ3 1-237, looked up) ADP-ribosylation factor-like …: MAHVGSRKRSRSRSRSRGRGSEKRKKKSRKDTSRNCSASTSQGRKASTAPGAEASPSPCITERSKQKARRRTRSSSSSSSSSSSSSSSSSSSSSSSSSDGRKKRGKYKDKRRKKKKKRKKLKKKGKEKAEAQQVEALPGPSLDQWHRSAGEEEDGPVLTDEQKSRIQAMKPMTKEEWDARQSIIRKVVDPETGRTRLIKGDGEVLEEIVTKERHREINKQATRGDCLAFQMRAGLLP | 3 | 2 |  |  |  |  |  |  |  |  |  |  |  | 
NOLC1 (protein, UniProt Q14978 1-699, looked up) Nucleolar and coiled-body …: MADAGIRRVVPSDLYPLVLGFLRDNQLSEVANKFAKATGATQQDANASSLLDIYSFWLKSAKVPERKLQANGPVAKKAKKKASSSDSEDSSEEEEEVQGPPAKKAAVPAKRVGLPPGKAAAKASESSSSEESSDDDDEEDQKKQPVQKGVKPQAKAAKAPPKKAKSSDSDSDSSSEDEPPKNQKPKITPVTVKAQTKAPPKPARAAPKIANGKAASSSSSSSSSSSSDDSEEEKAAATPKKTVPKKQVVAKAPVKAATTPTRKSSSSEDSSSDEEEEQKKPMKNKPGPYSSVPPPSAPPPKKSLGTQPPKKAVEKQQPVESSEDSSDESDSSSEEEKKPPTKAVVSKATTKPPPAKKAAESSSDSSDSDSSEDDEAPSKPAGTTKNSSNKPAVTTKSPAVKPAAAPKQPVGGGQKLLTRKADSSSSEEESSSSEEEKTKKMVATTKPKATAKAALSLPAKQAPQGSRDSSSDSDSSSSEEEEEKTSKSAVKKKPQKVAGGAAPSKPASAKKGKAESSNSSSSDDSSEEEEEKLKGKGSPRPQAPKANGTSALTAQNGKAAKNSEEEEEEKKKAAVVVSKSGSLKKRKQNEAAKEAETPQAKKIKLQTPNTFPKRKKGEKRASSPFRRVREEEIEVDSRVADNSFDAKRGAAGDWGERANQVLKFTKGKSFRHEKTKKKRGSYRGGSISVQVNSIKFDSE | 1 | 1 | 1 | 1 | 1 | 1 | 36 | 13 | 13 | 8 | 4 | 4 |  | 
WDR36 (protein, UniProt Q8NI36 1-895, looked up) WD repeat-containing protein …: MERASERRTASALFAGFRALGLFSNDIPHVVRFSALKRRFYVTTCVGKSFHTYDVQKLSLVAVSNSVPQDICCMAADGRLVFAAYGNVFSAFARNKEIVHTFKGHKAEIHFLQPFGDHIISVDTDGILIIWHIYSEEEYLQLTFDKSVFKISAILHPSTYLNKILLGSEQGSLQLWNVKSNKLLYTFPGWKVGVTALQQAPAVDVVAIGLMSGQVIIHNIKFNETLMKFRQDWGPITSISFRTDGHPVMAAGSPCGHIGLWDLEDKKLINQMRNAHSTAIAGLTFLHREPLLVTNGADNALRIWIFDGPTGEGRLLRFRMGHSAPLTNIRYYGQNGQQILSASQDGTLQSFSTVHEKFNKSLGHGLINKKRVKRKGLQNTMSVRLPPITKFAAEEARESDWDGIIACHQGKLSCSTWNYQKSTIGAYFLKPKELKKDDITATAVDITSCGNFAVIGLSSGTVDVYNMQSGIHRGSFGKDQAHKGSVRGVAVDGLNQLTVTTGSEGLLKFWNFKNKILIHSVSLSSSPNIMLLHRDSGILGLALDDFSISVLDIETRKIVREFSGHQGQINDMAFSPDGRWLISAAMDCSIRTWDLPSGCLIDCFLLDSAPLNVSMSPTGDFLATSHVDHLGIYLWSNISLYSVVSLRPLPADYVPSIVMLPGTCQTQDVEVSEETVEPSDELIEYDSPEQLNEQLVTLSLLPESRWKNLLNLDVIKKKNKPKEPPKVPKSAPFFIPTIPGLVPRYAAPEQNNDPQQSKVVNLGVLAQKSDFCLKLEEGLVNNKYDTALNLLKESGPSGIETELRSLSPDCGGSIEVMQSFLKMIGMMLDRKRDFELAQAYLALFLKLHLKMLPSEPVLLEEITNLSSQVEENWTHLQSLFNQSMCILNYLKSALL | 3 | 3 |  |  |  |  |  |  | 3 | 3 |  |  |  | 
MBD1 (protein, UniProt Q9UIS9 1-605, looked up) Methyl-CpG-binding domain …: MAEDWLDCPALGPGWKRREVFRKSGATCGRSDTYYQSPTGDRIRSKVELTRYLGPACDLTLFDFKQGILCYPAPKAHPVAVASKKRKKPSRPAKTRKRQVGPQSGEVRKEAPRDETKADTDTAPASFPAPGCCENCGISFSGDGTQRQRLKTLCKDCRAQRIAFNREQRMFKRVGCGECAACQVTEDCGACSTCLLQLPHDVASGLFCKCERRRCLRIVERSRGCGVCRGCQTQEDCGHCPICLRPPRPGLRRQWKCVQRRCLRGKHARRKGGCDSKMAARRRPGAQPLPPPPPSQSPEPTEPHPRALAPSPPAEFIYYCVDEDELQPYTNRRQNRKCGACAACLRRMDCGRCDFCCDKPKFGGSNQKRQKCRWRQCLQFAMKRLLPSVWSESEDGAGSPPPYRRRKRPSSARRHHLGPTLKPTLATRTAQPDHTQAPTKQEAGGGFVLPPPGTDLVFLREGASSPVQVPGPVAASTEALLQEAQCSGLSWVVALPQVKQEKADTQDEWTPGTAVLTSPVLVPGCPSKAVDPGLPSVKQEPPDPEEDKEENKDDSASKLAPEEEAGGAGTPVITEIFSLGGTRFRDTAVWLPRSKDLKKPGARKQ | 3 | 2 | 1 | 1 |  |  |  |  |  |  |  |  |  | 
RBM15 (protein, UniProt Q96T37 1-977, looked up) RNA-binding protein 15: MRTAGRDPVPRRSPRWRRAVPLCETSAGRRVTQLRGDDLRRPATMKGKERSPVKAKRSRGGEDSTSRGERSKKLGGSGGSNGSSSGKTDSGGGSRRSLHLDKSSSRGGSREYDTGGGSSSSRLHSYSSPSTKNSSGGGESRSSSRGGGGESRSSGAASSAPGGGDGAEYKTLKISELGSQLSDEAVEDGLFHEFKRFGDVSVKISHLSGSGSGDERVAFVNFRRPEDARAAKHARGRLVLYDRPLKIEAVYVSRRRSRSPLDKDTYPPSASVVGASVGGHRHPPGGGGGQRSLSPGGAALGYRDYRLQQLALGRLPPPPPPPLPRDLERERDYPFYERVRPAYSLEPRVGAGAGAAPFREVDEISPEDDQRANRTLFLGNLDITVTESDLRRAFDRFGVITEVDIKRPSRGQTSTYGFLKFENLDMSHRAKLAMSGKIIIRNPIKIGYGKATPTTRLWVGGLGPWVPLAALAREFDRFGTIRTIDYRKGDSWAYIQYESLDAAHAAWTHMRGFPLGGPDRRLRVDFADTEHRYQQQYLQPLPLTHYELVTDAFGHRAPDPLRGARDRTPPLLYRDRDRDLYPDSDWVPPPPPVRERSTRTAATSVPAYEPLDSLDRRRDGWSLDRDRGDRDLPSSRDQPRKRRLPEESGGRHLDRSPESDRPRKRHCAPSPDRSPELSSSRDRYNSDNDRSSRLLLERPSPIRDRRGSLEKSQGDKRDRKNSASAERDRKHRTTAPTEGKSPLKKEDRSDGSAPSTSTASSKLKSPSQKQDGGTAPVASASPKLCLAWQGMLLLKNSNFPSNMHLLQGDLQVASSLLVEGSTGGKVAQLKITQRLRLDQPKLDEVTRRIKVAGPNGYAILLAVPGSSDSRSSSSSAASDTATSTQRPLRNLVSYLKQKQAAGVISLPVGGNKDKENTGVLHAFPPCEFSQQFLDSPAKALAKSEEDYLVMIIVRGFGFQIGVRYENKKRENLALTLL | 3 | 3 |  |  |  |  |  |  | 3 | 3 | 7 | 7 | 7 | 6
